Binding data for one molecule are collected here from PMC6904755.

No constants are given. Whether binding was seen depends on the method and setting. Some binding calls cover weakened binding; strength is not graded here.

This test deals with Drosophila Gemin3, full-length (wild type) (Drosophila) (UniProt Q9V3C4). The test can be described thus: two-hybrid; GAL4-BD baits (pASΔΔ, strain CG1945) mated with GAL4-AD preys (pACT2st, strain Y187); β-galactosidase activity of the GAL1-LacZ reporter measured from extracts of cells grown in –Trp–Leu medium.

B1: Drosophila Gemin3, full-length (wild type) (protein, UniProt Q9V3C4 1-1028)
chain: MEREIAHSLAGGEERSSDVAPGQVKTFEELRLYRNLLNGLKRNNFVTPTKIQAAAIPMALAKMDLIIQSKSGTGKTLIYVIAVVQSFNPNINQPHAMIVVPTRELAIQVQDTFFHLCKSFRDFKCSAFIGGTDVAKDRKRMNESRVIIGTPGRLLHLYENRVFDVSKLRLLVLDEADQLYQTKSLQHTVSKLIEAMPKNRQIIACSATYDQNLDERLAKVMDKPMLISNSERATVLLGIRQFVYELPQQNNSVEEMRLKLQILGQIFNQLPYEQAIIFASSQMRADSYKNYLTASGIDCHLISGAMEQSERLHVFEGYRNFTMRILVATDLMARGVDSPHANLVINIDPPQDHVTYLHRIGRAGRFGSKGIAITFIASKKESQRFREMSKKIATAWSVLEFPKEPMPNEFNFWDFEKYNFDYYIKEENPLQEMPMPIKENRSKENVDASSVDLENLQKDQDGKRRDPDKLPVALENVETQKELELENLPESSHNNKNLRVKEKEIVRQGKLKETNSKAGGSKTNKTERRKKSNTPSKLQKQITEVQQTPEITVNKYYMQEDIQRTADGKEYHPVNGAGNHQVPSKSNQKPVEFISPELTPTLTPLELTQEPSPTTVTPPAPPANSINNKTYCLAAPTQTSSMTIQNMVISNTVDDASSISSDSMVVCGYHSDRSYDTYYATSDEEEIWNRLMSKQRRQLKSKRGHGKRRVILYKKVFPKLKANVKRKLKKRMSSSCRSKKAHHLRKRHVYKNISLLPHMNLCHLLQKFTNQERFLKRLHKYAKNQFIDNARVGFLLDKLYKSILEMYYNSAKERKKHFKEAMKESLKSIDNYESQESSESEEEEEEEKDLKNKLSVHVTNQMDIPPMPQAAVEIGSGSESDTEDSQEYGEGEEIIVDDEDDGSDGGPNSSSGFVESQESVSSGIDTSVYETESTGASGNNSSAFFISDDESDTESLTDSEAGSNVSATGSSSQRSSVASSTYESSDDDSVTVTNVSSMQNAQSLWLQTFNMQYQFIASHVAKNLQNYY
As for B1, the binding entry is listed as “binds”.
